In the supplement of paper PMC10849652:
The other results are listed elsewhere or left out.

By UniProt entry, the sequences of proteins in these tests, tags left out. Where a name states a change or a piece, a line headed by the entry shows the natural chain unless it says otherwise.
UniProt P17028: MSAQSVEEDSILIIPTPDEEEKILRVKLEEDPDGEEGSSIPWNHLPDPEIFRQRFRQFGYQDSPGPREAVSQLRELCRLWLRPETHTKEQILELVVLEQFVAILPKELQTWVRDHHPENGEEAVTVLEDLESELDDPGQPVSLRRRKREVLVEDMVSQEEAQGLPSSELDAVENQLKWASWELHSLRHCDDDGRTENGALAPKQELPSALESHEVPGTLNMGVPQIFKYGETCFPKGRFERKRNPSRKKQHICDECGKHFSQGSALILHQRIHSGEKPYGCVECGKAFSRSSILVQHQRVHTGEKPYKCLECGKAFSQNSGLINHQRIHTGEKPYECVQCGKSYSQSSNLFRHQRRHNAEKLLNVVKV
UniProt Q8WV99: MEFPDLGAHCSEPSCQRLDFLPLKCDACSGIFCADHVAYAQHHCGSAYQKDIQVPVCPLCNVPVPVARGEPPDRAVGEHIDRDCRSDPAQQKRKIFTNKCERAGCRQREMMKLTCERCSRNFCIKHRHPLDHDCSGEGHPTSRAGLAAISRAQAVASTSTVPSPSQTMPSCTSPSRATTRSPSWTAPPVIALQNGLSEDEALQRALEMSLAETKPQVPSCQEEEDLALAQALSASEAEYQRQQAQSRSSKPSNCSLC
UniProt Q96TA2: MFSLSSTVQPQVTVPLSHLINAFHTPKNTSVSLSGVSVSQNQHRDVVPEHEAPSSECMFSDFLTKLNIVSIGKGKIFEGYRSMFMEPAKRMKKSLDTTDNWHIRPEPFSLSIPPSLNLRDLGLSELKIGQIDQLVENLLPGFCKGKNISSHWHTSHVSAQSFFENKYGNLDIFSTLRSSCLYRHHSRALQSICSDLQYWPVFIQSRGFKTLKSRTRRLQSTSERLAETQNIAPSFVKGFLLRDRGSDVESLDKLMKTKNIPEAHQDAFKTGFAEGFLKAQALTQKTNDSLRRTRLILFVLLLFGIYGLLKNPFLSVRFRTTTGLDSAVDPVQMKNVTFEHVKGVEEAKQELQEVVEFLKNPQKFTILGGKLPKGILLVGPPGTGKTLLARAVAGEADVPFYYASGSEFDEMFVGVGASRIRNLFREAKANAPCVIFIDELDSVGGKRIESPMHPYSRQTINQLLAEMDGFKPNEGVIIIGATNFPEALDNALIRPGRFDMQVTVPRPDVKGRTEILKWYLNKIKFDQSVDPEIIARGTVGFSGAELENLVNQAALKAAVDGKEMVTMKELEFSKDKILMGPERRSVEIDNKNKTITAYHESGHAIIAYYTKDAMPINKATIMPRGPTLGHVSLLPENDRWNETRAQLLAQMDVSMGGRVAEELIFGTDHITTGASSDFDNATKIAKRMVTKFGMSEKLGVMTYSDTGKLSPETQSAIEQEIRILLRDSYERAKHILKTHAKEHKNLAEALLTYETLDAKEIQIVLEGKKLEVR
UniProt Q5BJH7: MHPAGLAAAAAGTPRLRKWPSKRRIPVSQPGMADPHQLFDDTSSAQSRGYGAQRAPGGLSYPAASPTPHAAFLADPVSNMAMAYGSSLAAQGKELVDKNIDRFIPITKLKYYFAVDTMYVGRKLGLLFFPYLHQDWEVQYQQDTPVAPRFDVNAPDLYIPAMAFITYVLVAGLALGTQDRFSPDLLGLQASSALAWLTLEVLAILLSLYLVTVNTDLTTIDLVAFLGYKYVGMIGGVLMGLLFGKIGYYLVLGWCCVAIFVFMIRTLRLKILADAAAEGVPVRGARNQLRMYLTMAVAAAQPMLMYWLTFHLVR
UniProt Q04917: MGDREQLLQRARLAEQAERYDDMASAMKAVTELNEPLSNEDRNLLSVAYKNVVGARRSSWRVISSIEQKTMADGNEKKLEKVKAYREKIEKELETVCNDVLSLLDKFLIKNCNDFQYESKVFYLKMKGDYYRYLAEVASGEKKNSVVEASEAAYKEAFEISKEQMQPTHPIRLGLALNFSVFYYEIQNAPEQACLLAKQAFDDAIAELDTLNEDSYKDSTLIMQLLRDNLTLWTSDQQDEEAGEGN
UniProt O15498: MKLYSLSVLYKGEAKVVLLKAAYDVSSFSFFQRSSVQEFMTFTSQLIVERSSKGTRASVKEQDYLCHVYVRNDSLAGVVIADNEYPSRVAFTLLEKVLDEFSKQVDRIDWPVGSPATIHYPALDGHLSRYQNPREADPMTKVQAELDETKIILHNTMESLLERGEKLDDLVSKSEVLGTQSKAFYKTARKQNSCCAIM
UniProt Q9NUD5: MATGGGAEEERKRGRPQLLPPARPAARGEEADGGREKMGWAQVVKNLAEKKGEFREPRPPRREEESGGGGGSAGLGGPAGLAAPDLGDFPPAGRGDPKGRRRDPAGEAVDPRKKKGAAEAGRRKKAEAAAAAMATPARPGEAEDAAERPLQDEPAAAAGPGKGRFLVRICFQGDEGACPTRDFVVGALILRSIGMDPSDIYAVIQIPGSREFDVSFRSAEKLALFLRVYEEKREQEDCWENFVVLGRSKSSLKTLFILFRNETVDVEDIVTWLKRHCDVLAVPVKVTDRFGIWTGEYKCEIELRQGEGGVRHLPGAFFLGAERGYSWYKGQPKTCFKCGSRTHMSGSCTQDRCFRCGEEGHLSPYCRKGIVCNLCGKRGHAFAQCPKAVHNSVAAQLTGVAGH
UniProt Q9BW85: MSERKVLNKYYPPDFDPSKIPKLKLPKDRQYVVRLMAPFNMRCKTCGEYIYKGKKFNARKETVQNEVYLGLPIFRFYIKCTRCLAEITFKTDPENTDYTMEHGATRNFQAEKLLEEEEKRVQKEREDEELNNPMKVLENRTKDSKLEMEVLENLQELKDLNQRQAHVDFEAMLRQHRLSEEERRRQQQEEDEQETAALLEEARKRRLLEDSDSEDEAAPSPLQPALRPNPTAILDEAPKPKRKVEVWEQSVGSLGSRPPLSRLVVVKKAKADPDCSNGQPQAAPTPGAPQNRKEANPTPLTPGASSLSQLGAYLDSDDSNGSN
UniProt Q7Z3T8: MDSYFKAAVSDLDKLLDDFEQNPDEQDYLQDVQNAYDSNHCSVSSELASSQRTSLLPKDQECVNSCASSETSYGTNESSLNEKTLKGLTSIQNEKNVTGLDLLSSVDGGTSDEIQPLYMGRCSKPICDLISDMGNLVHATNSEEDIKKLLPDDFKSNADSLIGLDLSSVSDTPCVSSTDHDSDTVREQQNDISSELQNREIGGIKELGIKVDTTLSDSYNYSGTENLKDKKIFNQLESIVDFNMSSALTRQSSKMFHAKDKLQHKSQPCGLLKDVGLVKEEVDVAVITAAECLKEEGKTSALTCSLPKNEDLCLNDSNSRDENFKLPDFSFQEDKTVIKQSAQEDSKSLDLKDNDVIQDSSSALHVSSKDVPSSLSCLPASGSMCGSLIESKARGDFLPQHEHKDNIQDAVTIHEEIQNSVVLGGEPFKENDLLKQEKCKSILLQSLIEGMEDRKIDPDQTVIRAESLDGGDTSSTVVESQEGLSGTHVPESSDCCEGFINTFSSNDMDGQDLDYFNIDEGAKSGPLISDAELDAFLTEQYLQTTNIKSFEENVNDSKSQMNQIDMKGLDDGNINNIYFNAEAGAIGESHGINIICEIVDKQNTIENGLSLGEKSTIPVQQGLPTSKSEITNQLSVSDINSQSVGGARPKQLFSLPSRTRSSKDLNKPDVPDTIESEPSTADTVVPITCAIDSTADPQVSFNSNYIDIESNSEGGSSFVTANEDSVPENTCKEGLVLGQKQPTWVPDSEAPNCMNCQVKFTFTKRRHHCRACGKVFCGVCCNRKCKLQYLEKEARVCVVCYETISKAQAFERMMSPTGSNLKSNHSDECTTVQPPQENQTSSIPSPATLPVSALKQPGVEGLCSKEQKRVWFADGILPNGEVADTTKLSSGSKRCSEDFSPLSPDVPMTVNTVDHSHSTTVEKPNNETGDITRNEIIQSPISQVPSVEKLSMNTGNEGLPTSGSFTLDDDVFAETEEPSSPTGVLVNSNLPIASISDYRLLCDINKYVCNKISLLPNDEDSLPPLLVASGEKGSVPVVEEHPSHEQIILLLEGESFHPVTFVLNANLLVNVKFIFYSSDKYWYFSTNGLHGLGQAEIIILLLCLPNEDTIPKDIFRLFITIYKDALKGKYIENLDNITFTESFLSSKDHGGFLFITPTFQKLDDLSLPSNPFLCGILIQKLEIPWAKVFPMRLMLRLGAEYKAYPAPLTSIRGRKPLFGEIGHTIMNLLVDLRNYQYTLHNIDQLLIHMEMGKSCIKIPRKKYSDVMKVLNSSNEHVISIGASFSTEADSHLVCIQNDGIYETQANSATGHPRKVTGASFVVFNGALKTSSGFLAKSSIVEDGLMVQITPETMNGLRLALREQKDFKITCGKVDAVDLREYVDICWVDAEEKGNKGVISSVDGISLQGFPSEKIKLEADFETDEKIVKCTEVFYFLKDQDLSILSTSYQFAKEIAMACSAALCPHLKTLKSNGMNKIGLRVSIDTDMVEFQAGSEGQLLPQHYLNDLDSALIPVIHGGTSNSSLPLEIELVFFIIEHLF
UniProt Q96K21: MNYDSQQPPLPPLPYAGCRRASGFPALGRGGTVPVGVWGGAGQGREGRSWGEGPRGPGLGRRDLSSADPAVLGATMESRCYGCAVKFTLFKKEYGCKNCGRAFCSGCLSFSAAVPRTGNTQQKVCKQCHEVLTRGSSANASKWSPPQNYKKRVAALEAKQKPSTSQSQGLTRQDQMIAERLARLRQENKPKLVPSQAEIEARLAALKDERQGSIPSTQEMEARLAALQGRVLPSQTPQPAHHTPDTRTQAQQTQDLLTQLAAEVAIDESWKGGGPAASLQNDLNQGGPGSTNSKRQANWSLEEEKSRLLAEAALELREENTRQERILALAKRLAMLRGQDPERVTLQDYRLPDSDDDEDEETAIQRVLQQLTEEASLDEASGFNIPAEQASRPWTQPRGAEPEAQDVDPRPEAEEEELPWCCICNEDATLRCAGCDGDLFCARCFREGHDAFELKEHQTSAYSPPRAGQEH
UniProt Q9NUE0: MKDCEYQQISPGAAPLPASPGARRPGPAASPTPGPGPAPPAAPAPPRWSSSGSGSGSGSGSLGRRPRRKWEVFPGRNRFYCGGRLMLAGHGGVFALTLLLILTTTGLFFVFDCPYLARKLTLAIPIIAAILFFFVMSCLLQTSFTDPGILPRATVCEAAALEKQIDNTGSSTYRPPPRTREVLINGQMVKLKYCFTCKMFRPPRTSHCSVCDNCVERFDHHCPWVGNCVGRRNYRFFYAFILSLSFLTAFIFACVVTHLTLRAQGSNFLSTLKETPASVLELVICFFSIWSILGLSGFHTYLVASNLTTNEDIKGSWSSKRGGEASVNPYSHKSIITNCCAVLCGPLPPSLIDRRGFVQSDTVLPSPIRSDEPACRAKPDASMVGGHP
UniProt Q9Y2Z4: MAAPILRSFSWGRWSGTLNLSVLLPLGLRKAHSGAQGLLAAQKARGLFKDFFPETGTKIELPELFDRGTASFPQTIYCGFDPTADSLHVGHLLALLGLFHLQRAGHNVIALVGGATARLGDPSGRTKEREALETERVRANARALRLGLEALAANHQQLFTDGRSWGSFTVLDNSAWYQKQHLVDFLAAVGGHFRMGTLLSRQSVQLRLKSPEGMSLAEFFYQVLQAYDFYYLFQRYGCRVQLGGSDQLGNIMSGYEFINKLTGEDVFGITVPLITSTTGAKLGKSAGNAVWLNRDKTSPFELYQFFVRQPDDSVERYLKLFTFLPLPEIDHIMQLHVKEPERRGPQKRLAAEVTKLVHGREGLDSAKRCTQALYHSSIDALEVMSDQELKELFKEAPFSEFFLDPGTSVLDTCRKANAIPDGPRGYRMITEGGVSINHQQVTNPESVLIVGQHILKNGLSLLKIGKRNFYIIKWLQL
UniProt P61981: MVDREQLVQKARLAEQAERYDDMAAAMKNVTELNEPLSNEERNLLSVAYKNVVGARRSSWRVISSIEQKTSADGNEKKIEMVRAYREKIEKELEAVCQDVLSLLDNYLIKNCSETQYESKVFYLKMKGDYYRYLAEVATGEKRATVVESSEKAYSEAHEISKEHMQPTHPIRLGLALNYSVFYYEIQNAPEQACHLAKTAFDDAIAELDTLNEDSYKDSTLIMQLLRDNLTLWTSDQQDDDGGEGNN
UniProt Q969W1: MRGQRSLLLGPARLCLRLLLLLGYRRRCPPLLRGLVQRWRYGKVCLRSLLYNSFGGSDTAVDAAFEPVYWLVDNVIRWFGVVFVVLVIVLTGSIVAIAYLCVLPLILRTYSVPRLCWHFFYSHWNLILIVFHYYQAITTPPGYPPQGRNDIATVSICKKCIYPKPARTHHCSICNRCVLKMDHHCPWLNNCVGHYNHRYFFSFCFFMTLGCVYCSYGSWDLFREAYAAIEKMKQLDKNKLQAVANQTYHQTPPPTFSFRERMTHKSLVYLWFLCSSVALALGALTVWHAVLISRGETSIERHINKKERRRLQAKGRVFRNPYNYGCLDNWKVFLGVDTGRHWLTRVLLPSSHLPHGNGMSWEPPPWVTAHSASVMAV
UniProt Q8IWT0: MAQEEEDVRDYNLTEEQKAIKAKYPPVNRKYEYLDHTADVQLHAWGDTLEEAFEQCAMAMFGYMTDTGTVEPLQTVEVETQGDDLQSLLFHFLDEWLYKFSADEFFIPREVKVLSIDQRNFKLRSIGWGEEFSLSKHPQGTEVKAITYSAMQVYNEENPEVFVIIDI

Compound: CS(=O)(=O)c1ccc(-c2cnc(N)c(C(=O)Nc3ccccc3)n2)cc1
Assay: log2 fold change, soluble protein after heating vs DMSO (PISA); higher = thermal stabilisation; K562 cells, 10 uM, 30 min; active = over 0.2 and 3.5 SD of the protein, either way, in both replicates (recomputed)
In short: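 K562 cells (2×10^6 cells/mL) were treated with 10 μM compound for 30 min, and aliquots were heated for 3 min over 48°C-58°C. Pooled aliquots were extracted in PBS with 0.5% NP-40 at 4°C, and the supernatant after 21,000xg for 90 min was measured by TMTpro 16plex LC-MS/MS with channel sums equalised. Reported thermal stability, relative to control samples and from duplicates, is a log2 fold change.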

| Target | log2 fold change |
| --- | --- |
| ZNF24 (UniProt P17028) | inactive: -0.081 |
| ZFAND2B (UniProt Q8WV99) | inactive: 0.074 |
| YME1L1 (UniProt Q96TA2) | inactive: -0.021 |
| YIF1B (UniProt Q5BJH7) | inactive: 0.029 |
| YEATS4 (UniProt O95619) | inactive: -0.044 |
| YWHAH (UniProt Q04917) | inactive: 0.024 |
| YKT6 (UniProt O15498) | inactive: 0.034 |
| YTHDF2 (UniProt Q9Y5A9) | inactive: 0.016 |
| ZCCHC3 (UniProt Q9NUD5) | inactive: -0.109 |
| YJU2 (UniProt Q9BW85) | inactive: -0.006 |
| ZFYVE16 (UniProt Q7Z3T8) | inactive: 0.034 |
| ZFYVE19 (UniProt Q96K21) | inactive: -0.012 |
| YWHAE (UniProt P62258) | inactive: -0.013 |
| ZDHHC18 (UniProt Q9NUE0) | inactive: 0.067 |
| ZFYVE27 isoform 2 (UniProt Q5T4F4) | inactive: 0.012 |
| YARS2 (UniProt Q9Y2Z4) | inactive: 0.215 |
| YWHAG (UniProt P61981) | inactive: -0.012 |
| ZCCHC8 (UniProt Q6NZY4) | inactive: 0.017 |
| ZDHHC16 (UniProt Q969W1) | inactive: 0.087 |
| ZBTB8OS (UniProt Q8IWT0) | inactive: 0.004 |
| ZC3H4 (UniProt Q9UPT8) | inactive: -0.032 |
| XPR1 (UniProt Q9UBH6) | inactive: 0.025 |
| XPO7 (UniProt E7ESC6) | inactive: 0.042 |

Quoted at random: 2 entries already listed.

| Target | log2 fold change |
| --- | --- |
| YWHAG (UniProt P61981) | inactive: -0.012 |
| ZCCHC8 (UniProt Q6NZY4) | inactive: 0.017 |
